Values of other authors, collected in patent US10519207B2, “Compositions and methods for treating opioid tolerance” (priority 2015, dated 2019).

Protein sequences, listed by entry. Tags and fused reporters are not part of them. Residues count along the entry.
UniProt P16599, 80-235: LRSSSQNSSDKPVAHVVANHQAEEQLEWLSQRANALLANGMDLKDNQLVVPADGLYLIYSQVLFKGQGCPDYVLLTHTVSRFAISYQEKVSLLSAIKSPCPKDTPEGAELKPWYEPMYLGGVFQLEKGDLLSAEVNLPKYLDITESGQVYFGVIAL

Target: soluble TNF (solTNF) (Rattus norvegicus, UniProt P16599)
Conditions: systemic; Loyd et al. 2008; cited from earlier work

SMILES: CN1CC[C@]23c4c5ccc(O)c4O[C@H]2[C@@H](O)C=C[C@H]3[C@H]1C5 [morphine]
- morphine ED50 dose: 5 mg/kg
